{
  "sequences": {"note": "The chains behind the UniProt entries cited, without tags or fusion partners. Where a name states a change or a piece, a line headed by the entry shows the natural chain unless it says otherwise.", "UniProt P13674": "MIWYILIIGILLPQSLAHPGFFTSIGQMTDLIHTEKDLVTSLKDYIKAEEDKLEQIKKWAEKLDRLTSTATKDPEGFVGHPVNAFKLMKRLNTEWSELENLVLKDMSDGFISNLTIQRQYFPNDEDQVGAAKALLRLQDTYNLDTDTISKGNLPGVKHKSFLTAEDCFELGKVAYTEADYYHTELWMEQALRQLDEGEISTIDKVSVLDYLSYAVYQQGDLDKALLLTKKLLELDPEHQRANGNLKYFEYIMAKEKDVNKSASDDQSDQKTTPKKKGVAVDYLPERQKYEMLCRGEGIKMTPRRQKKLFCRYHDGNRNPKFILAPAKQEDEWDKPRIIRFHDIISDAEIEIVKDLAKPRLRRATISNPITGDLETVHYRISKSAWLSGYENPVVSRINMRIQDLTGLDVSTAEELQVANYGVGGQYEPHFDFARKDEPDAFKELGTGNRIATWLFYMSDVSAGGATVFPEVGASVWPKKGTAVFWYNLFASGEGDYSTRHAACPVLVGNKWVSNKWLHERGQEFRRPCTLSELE", "UniProt Q86TM6": "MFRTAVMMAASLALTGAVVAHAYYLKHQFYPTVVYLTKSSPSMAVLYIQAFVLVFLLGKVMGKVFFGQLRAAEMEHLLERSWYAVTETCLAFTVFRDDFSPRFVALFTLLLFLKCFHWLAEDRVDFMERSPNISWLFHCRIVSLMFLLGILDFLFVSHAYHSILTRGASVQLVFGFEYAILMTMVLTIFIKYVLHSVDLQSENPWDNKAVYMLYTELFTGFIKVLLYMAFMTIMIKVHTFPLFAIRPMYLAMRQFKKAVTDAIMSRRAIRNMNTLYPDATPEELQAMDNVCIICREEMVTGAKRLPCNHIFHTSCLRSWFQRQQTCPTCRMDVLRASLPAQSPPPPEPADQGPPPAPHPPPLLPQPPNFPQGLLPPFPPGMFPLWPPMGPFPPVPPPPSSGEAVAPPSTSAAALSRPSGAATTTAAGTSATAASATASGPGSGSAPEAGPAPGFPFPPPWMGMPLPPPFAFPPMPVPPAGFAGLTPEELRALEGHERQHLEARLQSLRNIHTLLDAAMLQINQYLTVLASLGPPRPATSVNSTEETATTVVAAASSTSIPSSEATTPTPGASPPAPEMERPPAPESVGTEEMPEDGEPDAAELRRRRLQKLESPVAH"},
  "source": "patent US20070134720A1",
  "about": "“Method of detecting effect of controlling synoviolin activity” (priority 2003, published 2007)",
  "key": {"[1]": {"target": "[35S]-labeled Flag-P4HA1 fused protein (human) (UniProt P13674)", "assay": "GST pulldown, autoradiograph (FIG. 2)"}, "[2]": {"target": "[35S]-labeled Flag-P4HA1 fused protein (human) (UniProt P13674)", "assay": "GST pulldown, SDS-PAGE and autoradiography"}},
  "note": "No constants are given. Whether binding was seen depends on the method and setting. In cells and extracts the contact can be indirect. Some binding calls cover weakened binding; strength is not graded here.",
  "data": [
    {"substance": "GST-Syno RING fused protein (from UniProt Q86TM6 269-420)", "values": [
      {"measurement": "binding", "setting": "[1]", "value": "binds"},
      {"measurement": "binding", "setting": "[2]", "value": "binds"}
    ]},
    {"substance": "GST-Syno dTM fused protein (from UniProt Q86TM6 236-617)", "values": [
      {"measurement": "binding", "setting": "[1]", "value": "binds"},
      {"measurement": "binding", "setting": "[2]", "value": "binds"}
    ]}
  ]
}
